# According to article doi:10.1101/2022.03.08.483320:
# Chains of the proteins cited; added tags and fusions are not shown.
# UniProt P52701: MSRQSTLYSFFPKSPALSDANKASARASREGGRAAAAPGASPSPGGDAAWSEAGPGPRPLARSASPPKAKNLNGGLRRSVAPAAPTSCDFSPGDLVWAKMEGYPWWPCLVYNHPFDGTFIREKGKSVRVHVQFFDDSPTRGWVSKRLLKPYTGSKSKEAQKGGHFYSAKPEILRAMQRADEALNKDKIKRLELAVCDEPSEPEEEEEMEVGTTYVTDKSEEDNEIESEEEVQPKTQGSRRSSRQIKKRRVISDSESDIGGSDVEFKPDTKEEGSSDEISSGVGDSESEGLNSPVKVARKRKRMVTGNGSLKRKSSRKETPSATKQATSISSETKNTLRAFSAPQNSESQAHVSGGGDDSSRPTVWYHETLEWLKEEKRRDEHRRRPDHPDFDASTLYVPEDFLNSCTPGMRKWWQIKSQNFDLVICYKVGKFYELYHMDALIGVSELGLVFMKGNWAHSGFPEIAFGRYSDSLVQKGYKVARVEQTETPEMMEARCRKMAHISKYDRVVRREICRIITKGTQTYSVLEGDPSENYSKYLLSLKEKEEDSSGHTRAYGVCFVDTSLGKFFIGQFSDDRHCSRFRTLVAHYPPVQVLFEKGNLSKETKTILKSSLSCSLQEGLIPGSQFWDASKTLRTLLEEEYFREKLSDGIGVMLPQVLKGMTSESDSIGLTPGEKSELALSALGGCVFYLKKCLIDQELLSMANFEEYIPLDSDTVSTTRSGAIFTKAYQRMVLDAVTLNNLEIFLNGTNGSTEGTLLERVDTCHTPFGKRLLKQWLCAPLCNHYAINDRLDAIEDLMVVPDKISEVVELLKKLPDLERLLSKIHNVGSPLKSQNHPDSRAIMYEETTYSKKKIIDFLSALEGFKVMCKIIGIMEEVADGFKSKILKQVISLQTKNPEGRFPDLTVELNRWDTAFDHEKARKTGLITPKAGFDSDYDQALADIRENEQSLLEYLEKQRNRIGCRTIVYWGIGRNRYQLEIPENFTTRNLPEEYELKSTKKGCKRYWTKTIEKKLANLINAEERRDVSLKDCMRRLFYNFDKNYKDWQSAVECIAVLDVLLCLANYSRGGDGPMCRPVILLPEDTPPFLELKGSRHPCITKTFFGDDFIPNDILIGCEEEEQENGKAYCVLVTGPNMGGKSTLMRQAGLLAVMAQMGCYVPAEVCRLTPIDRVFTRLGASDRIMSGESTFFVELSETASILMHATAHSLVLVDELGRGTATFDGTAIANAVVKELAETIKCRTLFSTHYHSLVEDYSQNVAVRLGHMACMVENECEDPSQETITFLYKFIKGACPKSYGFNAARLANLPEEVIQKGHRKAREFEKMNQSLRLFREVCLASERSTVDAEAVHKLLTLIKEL
# UniProt Q92878: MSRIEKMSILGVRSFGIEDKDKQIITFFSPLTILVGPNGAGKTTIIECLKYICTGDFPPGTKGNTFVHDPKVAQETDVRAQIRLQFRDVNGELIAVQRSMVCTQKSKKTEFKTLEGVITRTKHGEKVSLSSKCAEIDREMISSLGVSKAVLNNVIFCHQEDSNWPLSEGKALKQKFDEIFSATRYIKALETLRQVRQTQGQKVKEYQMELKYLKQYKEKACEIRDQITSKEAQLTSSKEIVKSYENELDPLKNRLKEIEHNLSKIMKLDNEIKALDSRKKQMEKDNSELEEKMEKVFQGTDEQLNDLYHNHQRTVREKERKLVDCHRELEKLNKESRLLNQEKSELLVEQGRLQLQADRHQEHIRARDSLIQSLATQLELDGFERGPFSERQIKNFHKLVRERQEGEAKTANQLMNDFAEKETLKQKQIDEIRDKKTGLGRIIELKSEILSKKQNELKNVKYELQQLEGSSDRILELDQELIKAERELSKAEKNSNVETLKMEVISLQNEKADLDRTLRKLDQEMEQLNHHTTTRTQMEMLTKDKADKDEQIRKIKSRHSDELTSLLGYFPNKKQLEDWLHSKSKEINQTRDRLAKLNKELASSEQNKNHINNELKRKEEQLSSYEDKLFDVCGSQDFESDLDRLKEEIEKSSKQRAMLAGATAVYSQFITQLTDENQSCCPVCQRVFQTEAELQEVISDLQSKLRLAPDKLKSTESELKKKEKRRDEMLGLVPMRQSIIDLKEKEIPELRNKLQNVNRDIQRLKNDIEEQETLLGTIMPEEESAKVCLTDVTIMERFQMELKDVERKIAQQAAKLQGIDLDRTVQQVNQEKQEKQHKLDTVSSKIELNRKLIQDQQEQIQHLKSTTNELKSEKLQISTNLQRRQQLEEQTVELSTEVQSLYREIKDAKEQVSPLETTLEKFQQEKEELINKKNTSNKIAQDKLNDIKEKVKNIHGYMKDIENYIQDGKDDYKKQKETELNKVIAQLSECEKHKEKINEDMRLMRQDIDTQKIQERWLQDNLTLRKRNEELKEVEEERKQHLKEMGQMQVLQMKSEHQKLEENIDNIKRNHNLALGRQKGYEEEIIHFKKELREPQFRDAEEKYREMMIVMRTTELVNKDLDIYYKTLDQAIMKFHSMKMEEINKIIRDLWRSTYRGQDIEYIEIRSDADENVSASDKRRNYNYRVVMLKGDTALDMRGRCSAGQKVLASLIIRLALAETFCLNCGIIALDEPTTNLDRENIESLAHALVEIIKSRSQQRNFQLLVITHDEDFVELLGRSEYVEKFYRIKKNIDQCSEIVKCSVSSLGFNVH
# UniProt Q12888: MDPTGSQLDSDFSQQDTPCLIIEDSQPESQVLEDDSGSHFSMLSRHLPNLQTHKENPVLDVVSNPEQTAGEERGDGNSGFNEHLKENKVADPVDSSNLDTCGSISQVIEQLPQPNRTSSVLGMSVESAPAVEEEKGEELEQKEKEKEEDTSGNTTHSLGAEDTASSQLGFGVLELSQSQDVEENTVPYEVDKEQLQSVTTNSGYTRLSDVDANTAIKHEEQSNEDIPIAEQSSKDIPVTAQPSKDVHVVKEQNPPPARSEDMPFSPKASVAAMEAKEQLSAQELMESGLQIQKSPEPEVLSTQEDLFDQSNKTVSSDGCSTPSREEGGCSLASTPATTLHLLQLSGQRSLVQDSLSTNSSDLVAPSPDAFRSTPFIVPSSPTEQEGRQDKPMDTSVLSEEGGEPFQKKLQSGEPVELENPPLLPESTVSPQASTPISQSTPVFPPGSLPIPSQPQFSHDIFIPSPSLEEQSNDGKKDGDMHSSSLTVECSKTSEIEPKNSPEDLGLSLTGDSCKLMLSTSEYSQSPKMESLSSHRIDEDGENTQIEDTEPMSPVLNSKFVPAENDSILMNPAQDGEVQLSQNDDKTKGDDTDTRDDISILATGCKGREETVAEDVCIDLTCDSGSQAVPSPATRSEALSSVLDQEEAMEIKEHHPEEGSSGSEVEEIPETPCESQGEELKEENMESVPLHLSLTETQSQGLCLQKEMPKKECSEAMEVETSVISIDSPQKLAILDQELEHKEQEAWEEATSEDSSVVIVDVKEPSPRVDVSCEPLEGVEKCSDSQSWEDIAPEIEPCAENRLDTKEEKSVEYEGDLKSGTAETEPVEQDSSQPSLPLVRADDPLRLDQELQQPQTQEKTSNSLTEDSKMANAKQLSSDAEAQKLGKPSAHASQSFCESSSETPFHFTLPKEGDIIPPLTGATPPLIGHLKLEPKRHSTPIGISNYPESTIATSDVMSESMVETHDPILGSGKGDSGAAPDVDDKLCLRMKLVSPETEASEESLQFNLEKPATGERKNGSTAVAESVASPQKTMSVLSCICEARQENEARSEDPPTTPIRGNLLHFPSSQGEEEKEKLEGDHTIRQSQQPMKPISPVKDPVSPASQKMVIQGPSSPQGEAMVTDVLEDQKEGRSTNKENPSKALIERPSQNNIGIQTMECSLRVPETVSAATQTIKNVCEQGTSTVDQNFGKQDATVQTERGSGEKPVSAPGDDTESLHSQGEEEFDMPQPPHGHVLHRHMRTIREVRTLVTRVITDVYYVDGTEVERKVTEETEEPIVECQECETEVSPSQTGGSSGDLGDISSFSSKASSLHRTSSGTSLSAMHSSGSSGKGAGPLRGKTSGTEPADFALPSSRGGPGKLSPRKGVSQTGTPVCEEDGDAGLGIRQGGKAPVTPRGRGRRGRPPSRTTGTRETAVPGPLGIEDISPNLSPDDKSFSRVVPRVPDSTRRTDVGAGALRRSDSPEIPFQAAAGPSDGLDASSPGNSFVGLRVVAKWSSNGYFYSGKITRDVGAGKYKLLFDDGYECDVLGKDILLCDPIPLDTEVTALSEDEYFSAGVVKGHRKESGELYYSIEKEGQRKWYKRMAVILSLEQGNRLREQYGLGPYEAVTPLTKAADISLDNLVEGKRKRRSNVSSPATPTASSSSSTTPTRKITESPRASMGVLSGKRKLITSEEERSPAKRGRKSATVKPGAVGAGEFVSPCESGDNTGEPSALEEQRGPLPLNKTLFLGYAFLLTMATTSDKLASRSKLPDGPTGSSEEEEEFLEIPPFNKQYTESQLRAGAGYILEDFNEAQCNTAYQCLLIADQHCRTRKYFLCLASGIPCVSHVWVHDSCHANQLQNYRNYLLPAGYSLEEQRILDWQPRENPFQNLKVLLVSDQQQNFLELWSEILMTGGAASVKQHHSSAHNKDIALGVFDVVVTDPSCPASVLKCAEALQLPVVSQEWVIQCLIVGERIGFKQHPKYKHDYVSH
# Molecular target: T1, TRIM29 (immunoprecipitated from the nuclear fraction of RWPE-1) (human (endogenous in RWPE-1)) (UniProt Q14134)
# T1 sequence: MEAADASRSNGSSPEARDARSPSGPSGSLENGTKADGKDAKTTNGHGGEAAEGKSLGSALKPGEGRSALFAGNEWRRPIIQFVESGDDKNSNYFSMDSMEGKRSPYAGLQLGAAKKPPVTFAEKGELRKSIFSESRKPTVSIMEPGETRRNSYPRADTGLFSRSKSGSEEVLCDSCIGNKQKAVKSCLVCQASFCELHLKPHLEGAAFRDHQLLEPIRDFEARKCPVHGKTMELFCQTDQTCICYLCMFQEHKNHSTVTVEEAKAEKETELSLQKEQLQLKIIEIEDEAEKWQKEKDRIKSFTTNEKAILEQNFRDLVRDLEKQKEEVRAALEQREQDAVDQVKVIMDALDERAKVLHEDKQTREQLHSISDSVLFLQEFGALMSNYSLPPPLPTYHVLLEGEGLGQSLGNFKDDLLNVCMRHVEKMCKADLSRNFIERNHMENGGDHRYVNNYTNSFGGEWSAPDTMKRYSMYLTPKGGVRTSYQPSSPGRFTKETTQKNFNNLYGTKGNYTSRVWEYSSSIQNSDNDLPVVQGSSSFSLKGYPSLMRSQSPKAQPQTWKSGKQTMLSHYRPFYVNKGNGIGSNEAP
# Assay: affinity purification with mass spectrometry
row,binding,Substance
1,binds,MSH6 (from UniProt P52701 1-1360)
2,binds,RAD50 (from UniProt Q92878 1-1312)
3,binds,TP53BP1 (from UniProt Q12888 1-1972)

# Results are given in words; binding and its absence hold for the method and conditions named. In cells and extracts the contact can be indirect. A yes stands for co-enrichment or nearness to the bait. Other partners may have been found.
